PubChem BioAssay AID504847 (National Center for Advancing Translational Sciences (NCATS), 2011)
Where “and” joins values, the source holds several entries; their conditions need not be identical. Equal values may be shown once. The whole screen tested about 400,000 compounds, of which about 3,700 (0.93%) were called active. Inconclusive means that the source gave no clear call. Such entries were picked first, then a sample of the others. Calls follow the shape of the dose curve; as a rule, active = well fitted inhibition curve with a large enough effect; inconclusive = small, poorly fitted or top-dose-only effect, or another doubt; inactive = no such curve, though single readings can be large or run the other way. A potency beside an inconclusive call is a rough fit, not a confirmed value.

By UniProt entry, the sequences of proteins in these tests, tags left out. Where a name states a change or a piece, a line headed by the entry shows the natural chain unless it says otherwise.
UniProt P11473: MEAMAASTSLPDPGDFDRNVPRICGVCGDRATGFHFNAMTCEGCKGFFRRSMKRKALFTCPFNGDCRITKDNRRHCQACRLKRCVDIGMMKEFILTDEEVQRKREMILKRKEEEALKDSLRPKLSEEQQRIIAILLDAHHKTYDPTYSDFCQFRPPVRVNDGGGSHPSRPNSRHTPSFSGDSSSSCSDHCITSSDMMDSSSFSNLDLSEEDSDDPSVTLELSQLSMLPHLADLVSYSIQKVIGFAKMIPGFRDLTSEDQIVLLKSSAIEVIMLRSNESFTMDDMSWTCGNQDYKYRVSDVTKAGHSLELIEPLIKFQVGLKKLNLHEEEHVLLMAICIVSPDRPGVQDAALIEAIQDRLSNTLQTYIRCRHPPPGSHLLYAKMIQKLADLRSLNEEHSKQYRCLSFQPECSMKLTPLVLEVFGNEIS

Target: Vitamin D3 receptor (Homo sapiens) (UniProt P11473)
Assay: Inhibitors of the vitamin D receptor (VDR): qHTS
Conditions: VDR-SRC2-3 peptide fluorescence polarization, 2 h; max response, negative = inhibition: active compounds read low
Outline: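 Fluorescence polarization assay of small-molecule disruption of VDR binding to coregulator peptide SRC2-3. Compounds and controls pin-transferred, then read after 2 h incubation at ambient room temperature.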
% is scaled to controls: 0 for no effect and ±100 for the full control effect; potency is read from the fitted curve at half-maximal effect.

Row | Compound | max response, negative = inhibition | Potency
1 | CC(=O)NCCCc1nc2ccccc2n1Cc1c(F)cccc1Cl | inactive: -5.91% | –
2 | O=C(COC(=O)Cc1ccc(-c2ccccc2)cc1)NCc1ccccc1 | – | inconclusive: 14.1 µM [inhibitor, partial curve, poor fit]
3 | COc1ccc(/C=N\NC(=O)c2cc(O)c(O)c(O)c2)cc1COc1ccc(C(=O)OCC(C)C)cc1 | inactive: -7.49% | –
4 | CC(CCc1ccccc1)NC(=O)Cc1ccc([N+](=O)[O-])cc1 (stereo unspecified) | – | inconclusive: 25.1 µM [inhibitor, full curve, poor fit]
5 | COc1cc(OC)cc(C(=O)Nc2ccc([N+](=O)[O-])cn2)c1 | – | inconclusive: 50.1 µM [inhibitor, partial curve]
6 | CCOC(=O)c1cc(-c2ccc(F)cc2)n(CC(=O)NC2CCCCCC2)c1C | inactive: -0.806% | –
7 | COC1=C(N)C(=O)c2nc(C)ccc2C1=O | – | inconclusive: 89.1 µM [inhibitor, single point]
8 | COc1ccc(NC(=O)c2c(NC(=O)COc3ccccc3)sc3c2CCC(C(C)(C)C)C3)cc1 (stereo unspecified) | – | inconclusive: 2.82 µM [inhibitor, partial curve, poor fit]
9 | COc1ccc(C(=O)C(OC(=O)c2ccc(C)c(NC(C)=O)c2)c2ccccc2)cc1 (stereo unspecified) | – | inconclusive: 14.1 µM [inhibitor, partial curve, poor fit]
10 | C=C1CCC(OC(C)=O)/C(C)=C/CC2[C@H]1CC2(C)C (stereo partly specified) | – | inconclusive: 44.7 µM [inhibitor, partial curve, poor fit]
11 | CCOc1cccc2c1N[C@@H](c1ccc(C(=O)O)cc1)[C@H]1CC=C[C@@H]21 | – | inconclusive: 35.5 µM [inhibitor, partial curve]
12 | CCOC(=O)C1CCN(C2=NC(=O)/C(=C/c3ccc(Cl)cc3)S2)CC1 | inactive: -3.86% | –
13 | Cc1cccc(CCNC(=O)CC2C(=O)NCCN2Cc2ccccc2C)n1 (stereo unspecified) | inactive: -10.7% | –
14 | Cn1c(CC2Sc3ccccc3NC2=O)nnc1SCC(=O)c1ccc(Cl)cc1 (stereo unspecified) | – | inconclusive: 79.4 µM [inhibitor, partial curve, poor fit]
15 | COc1cc(OC)c(-c2nn3c(-c4cc(C)[nH]n4)nnc3s2)cc1OC | – | inconclusive: 100 µM [inhibitor, single point]
16 | CCOC(=O)c1ccc(N=c2sc(C(=O)OC)cc(=O)n2CCCN2CCOCC2)cc1 | – | inconclusive: 79.4 µM [inhibitor, partial curve, poor fit] and inconclusive: 56.2 µM [inhibitor, partial curve, poor fit]

Looked up by compound from the list above:
Row | Compound | max response, negative = inhibition | Potency
11 | CCOc1cccc2c1N[C@@H](c1ccc(C(=O)O)cc1)[C@H]1CC=C[C@@H]21 | – | inconclusive: 35.5 µM [inhibitor, partial curve]
9 | COc1ccc(C(=O)C(OC(=O)c2ccc(C)c(NC(C)=O)c2)c2ccccc2)cc1 (stereo unspecified) | – | inconclusive: 14.1 µM [inhibitor, partial curve, poor fit]
